Results taken from publication PMC7663336.
These are yes or no findings as the source states them, for the method shown. In cells and extracts the contact can be indirect. Binding calls can cover weak binding; strength is not graded here.

Biological target: voltage-dependent anion-selective channel (human (endogenous in A431))
Assay: co-IP; VDAC immunocaptured from lysate of the mitochondrial fraction of A431 cells (1 mL, 1.5 mg total protein) with VDAC antibody and protein A/G-conjugated beads overnight; four washes with TNES buffer; blot for HK2 and VDAC; cells treated with GL-V9, 10 uM MK2206 or SC79 for 36 h

binding: binds
B1: Hexokinase II (enzyme, UniProt P52789 1-917)
chain: MIASHLLAYFFTELNHDQVQKVDQYLYHMRLSDETLLEISKRFRKEMEKGLGATTHPTAAVKMLPTFVRSTPDGTEHGEFLALDLGGTNFRVLWVKVTDNGLQKVEMENQIYAIPEDIMRGSGTQLFDHIAECLANFMDKLQIKDKKLPLGFTFSFPCHQTKLDESFLVSWTKGFKSSGVEGRDVVALIRKAIQRRGDFDIDIVAVVNDTVGTMMTCGYDDHNCEIGLIVGTGSNACYMEEMRHIDMVEGDEGRMCINMEWGAFGDDGSLNDIRTEFDQEIDMGSLNPGKQLFEKMISGMYMGELVRLILVKMAKEELLFGGKLSPELLNTGRFETKDISDIEGEKDGIRKAREVLMRLGLDPTQEDCVATHRICQIVSTRSASLCAATLAAVLQRIKENKGEERLRSTIGVDGSVYKKHPHFAKRLHKTVRRLVPGCDVRFLRSEDGSGKGAAMVTAVAYRLADQHRARQKTLEHLQLSHDQLLEVKRRMKVEMERGLSKETHASAPVKMLPTYVCATPDGTEKGDFLALDLGGTNFRVLLVRVRNGKWGGVEMHNKIYAIPQEVMHGTGDELFDHIVQCIADFLEYMGMKGVSLPLGFTFSFPCQQNSLDESILLKWTKGFKASGCEGEDVVTLLKEAIHRREEFDLDVVAVVNDTVGTMMTCGFEDPHCEVGLIVGTGSNACYMEEMRNVELVEGEEGRMCVNMEWGAFGDNGCLDDFRTEFDVAVDELSLNPGKQRFEKMISGMYLGEIVRNILIDFTKRGLLFRGRISERLKTRGIFETKFLSQIESDCLALLQVRAILQHLGLESTCDDSIIVKEVCTVVARRAAQLCGAGMAAVVDRIRENRGLDALKVTVGVDGTLYKLHPHFAKVMHETVKDLAPKCDVSFLQSEDGSGKGAALITAVACRIREAGQR
